Among the data in article doi:10.1101/2025.08.28.672867, “Catalytic pocket of Clr4 (Suv39h) methyltransferase serves as a substrate receptor for Cullin 4-dependent histone H3 ubiquitination” (bioRxiv, 2025) are binding values, retold here.

By UniProt entry, the sequences of proteins in these tests, tags left out.
UniProt O60016: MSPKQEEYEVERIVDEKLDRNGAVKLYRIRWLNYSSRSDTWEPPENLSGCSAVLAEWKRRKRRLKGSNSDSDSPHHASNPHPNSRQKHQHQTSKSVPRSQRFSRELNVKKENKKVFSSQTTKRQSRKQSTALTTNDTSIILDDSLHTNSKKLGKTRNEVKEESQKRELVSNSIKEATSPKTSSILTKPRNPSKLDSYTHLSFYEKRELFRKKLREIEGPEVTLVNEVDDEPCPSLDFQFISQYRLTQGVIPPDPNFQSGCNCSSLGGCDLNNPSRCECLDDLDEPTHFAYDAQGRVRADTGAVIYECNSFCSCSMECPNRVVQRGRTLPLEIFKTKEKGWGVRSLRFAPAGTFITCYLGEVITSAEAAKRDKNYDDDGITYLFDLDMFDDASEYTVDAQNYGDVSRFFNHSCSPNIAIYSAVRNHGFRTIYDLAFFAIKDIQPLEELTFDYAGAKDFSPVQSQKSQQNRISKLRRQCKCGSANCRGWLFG

In assay [1] the target is T1, 6×His-MBP-Raf1 (S. pombe), O74910.
T1 chain: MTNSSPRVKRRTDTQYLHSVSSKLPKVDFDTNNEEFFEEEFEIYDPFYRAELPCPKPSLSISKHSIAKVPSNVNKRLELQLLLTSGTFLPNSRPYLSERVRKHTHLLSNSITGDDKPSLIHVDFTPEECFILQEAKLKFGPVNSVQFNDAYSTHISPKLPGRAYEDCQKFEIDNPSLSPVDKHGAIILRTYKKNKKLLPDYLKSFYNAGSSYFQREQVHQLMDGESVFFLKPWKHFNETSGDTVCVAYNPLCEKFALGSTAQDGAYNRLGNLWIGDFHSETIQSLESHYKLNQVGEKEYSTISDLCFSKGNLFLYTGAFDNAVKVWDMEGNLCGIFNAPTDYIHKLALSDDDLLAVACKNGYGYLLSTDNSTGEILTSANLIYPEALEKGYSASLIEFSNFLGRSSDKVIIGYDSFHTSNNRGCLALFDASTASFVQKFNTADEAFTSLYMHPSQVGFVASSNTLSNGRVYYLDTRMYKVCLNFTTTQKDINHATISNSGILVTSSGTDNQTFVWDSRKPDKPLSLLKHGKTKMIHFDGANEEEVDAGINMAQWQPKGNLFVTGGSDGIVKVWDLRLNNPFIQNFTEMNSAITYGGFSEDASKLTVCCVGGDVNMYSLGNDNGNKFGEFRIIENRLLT
Briefly: two-step affinity co-purification (Ni-NTA, amylose) + SEC; 6×His-MBP-Raf1, Raf2, Rik1 and Cul4 co-expressed from one bacmid in Hi5 cells; purified through the tags of Raf1; Superose 6 Increase 10/300 in 20 mM HEPES pH 7.5, 300 mM NaCl, 1 mM TCEP, 1 mM MgCl2, 10% glycerol; all 4 subunits in a single peak. The conditions noted are these: remark: other sources report otherwise.

In assay [2] the target is FLAG-Clr4 (N-terminal 3×FLAG), wild type (S. pombe) (UniProt O60016). Briefly: co-IP; S. pombe lysates (wild-type, cul4-K680R and cul4–1 cells), Benzonase treated; 20 mM HEPES pH 7.5, 100 mM NaCl, 5 mM MgCl2, 1 mM EDTA, 10% glycerol; antibody cross-linked to Protein A or G beads, 3 h at 4 °C; western blot. A general note: Immunoblotting shows a protein as a band on a membrane.

For another assay, the target named is T2, 6×His-MBP-Raf1 (S. pombe, UniProt O74910 1-638).
T2 construct: Raf1 (Rik1-associated factor 1, DDB2 homolog), S. pombe; Expressed from one bacmid with Raf2, Rik1 and Cul4 and purified with them; A TEV site lies between MBP and Raf1; also called Raf1-MBP; Raf1 (DDB2 homolog); source: Hi5 insect cells (baculovirus), purified (Ni-NTA, amylose, SEC) together with Raf2, Rik1 and Cul4; not shown: His6, N-terminal, kept; MBP, N-terminal, kept
T2 sequence (looked up): T1 chain
Briefly: two-step affinity co-purification (Ni-NTA, amylose) + SEC; 6×His-MBP-Raf1, Raf2, Rik1 and Cul4 co-expressed from one bacmid in Hi5 cells; purified through the tags of Raf1; Superose 6 Increase 10/300 in 20 mM HEPES pH 7.5, 300 mM NaCl, 1 mM TCEP, 1 mM MgCl2, 10% glycerol; all 4 subunits in a single peak.

No constants are given. Whether binding was seen depends on the method and setting. For some of these results: Binding seen in cells or lysates may run through a third protein. Some results given as binding are weak or reduced against the parent protein; the word gives no strength. Sequences can lack the tags named with a protein.

B1: Raf2 (untagged), O74560 1-636 (protein)
chain: MPPVRAEKKRKTDLIEQVCVTNKAGELVDLEDVLEYGPYSLTGILSSEKDEQEPLFDESIVLGYSIKISPVWTYNLKDVPEKETMSIWIVTPQRRYGILSPSSEYKAIYEQISEKNRLFYLIKTKFKDDMISGTLEDYDNYIEVLKEKLELPSCFQAILLVQKHIRFLLTQMVATSSLHVWSESPFFIRIRSSYEHLILQINKNIYNARQERKKSKLSSNNPSDNNTTMKSSLNQALTLINLPEQPFSISSPTATPQLGVVKRTSPLRFPLNDIWLSGLRIVDPNIESISLWKRIQVSTSPKHQRYISLQEVCSVIAQQLQITNLEALNKLSSHGETLLQIMHTAFTWRGTKLFNDIKHAIGFRSSVQQARSQFRGYCYDYLFMHCNNGEKTSLHLLRTLICMKLDFSNAQLAAKILFHFLLFDIGSGLSGSDYTYEQYINHSAVAFSFTEEIFEKNFVTVLPDFVKLFSISFGYWPAFSFYDELLKLLRNKYPKVYSSTPNLCDQVWLDRTNLFPCNRSTRSTLPYRPTKLLDLASASSCLSKKETDFKQDTGLYSYNLEKVEALKVSPDLQTGIWSCPVQNCLYFAVCDNPYKPSQVIYDHLLGHVDSKFIFKTPSNSVRSFTNKLEHIMYNIN
For B1, the binding result in assay [1] was “binds”.

B2: Rik1-myc (protein, UniProt Q10426 1-1040)
chain: MALCVHSFWATAVDTATSCHFISSENCLVLLQALKINIYLCSEVHGLQFFTSIPLFSTVKHIRPYRPPGLDRDYLFVVLNDDTYFSIYWDEDYQKVIVDHPPVRYRVTFPWNRNAKSYCLVDLRMRAIFLSIDEISMICIRILSAEERLKTGRSIDSGFPFSFPVHLIYDMCILNDSSTPTLVVLHSDGLDCYVTAFLLDLSSKSLGKGIRLFERVKPSMIMPFGKRGLLVFESLFIHCMYRGNFVTINGPCTTYMHWTPLKGQKMHYIVCDTNGYLFGVYSSILGKNKWSLVMERLPIPPFDFITSLNSIHEGLLFIGSKNSESKLINLSTLKDVDSIPNLGPIHDLLVLKNDIEKSFLVCAGTPRNASLIYFQHALKLDILGQTKISGILRAMVLPSYPEHKLFLGFPSETVAFNIKEDFQLELDPSLSTKERTIALSGTNGEFVQVTSTFLCIYDSAKRSRLVYIEKITNAACYQEYSAIVINGTALAIFKKDTEVARKVFESEISCLDFSAQFQIGVGFWSKQVMILTFSDNSSISCAFQTNVPSLPRNIILEGVGVDRNLLLVSSGSGEFKSYVLFKNNLVFSETKHFGTTPVSFRRFTMNIGTYIICNNDCPHMVYGFNGALCYMPLSMPQSYDVCQFRDNSGKDFLISVSLGGLKFLQLNPLPELTPRKVLLEHVPLQAIIFQNKLLLRTLENRYEDYESYKENYHLELVDSYDDNSFRVFSFTENERCEKVLKINESSLLVGTSIIEQDKLVPVNGRLILLEFEKELQSLKVVSSMVLSAAVIDLGVYNDRYIVAFGQQVAIVKLTEERLMIDSRISLGSIVLQLIVEGNEIAIADSIGRFTIMYFDGQKFIVVARYLFGENIVKAALYEGTVYIIATNSGLLKLLRYNKDAKNFNDRFICESVYHLHDKVSKFQNFPITNTNSFLEPKMLFATEIGAIGSIVSLKDKELELEELTRKIRKLKFSYLSSMDYESIEADLISPVPFIDGDLVIDVKRWASSELFRLCRSVEHRESLNSYQKVQALLEEIQSLC
With B2, the binding result in assay [2] was “binds”.

B3: Rik1 (untagged) (protein, UniProt Q10426 1-1040)
chain: B2 chain
As for B3, the binding result in the assay with 6×His-MBP-Raf1 is listed as “binds”.

B4: Cul4 (untagged) (protein, UniProt O14122 1-734)
chain: MPPEAKRIVVKGFDPRKSRQRQETYYVTMIDRLNMALQVVMAGLGLKTGYQELYSGVENLTRADQASRCFNILQHHMSSGIQLLKDSAESFIQLEGTETDTNACTVVVGCWNKWLERVEIVQNIFYYMDKTFLSHHPDYPTIEELSLSLFREKLMAVKNIQIPFLNSLLQSFENLHSSKSTDHAYLQDAMLMLHRTEMYSSVFVPMYLVMLSRFYDTESSQKIQELPLEEYLEYAMSSLEREDAYVEKFDIVRDKKSIRETVQRCLITSHLDTLTKGISQFIEKRDAHSCKLLYALLQFNHETEYLIQPWSDCLVDVGFKLVNDESKDDTLVQELLSFHKFLQVVVDESFLHDETLSYAMRKAFETFINGAKGSQREAPARLIAKYIDYLLRVGEQASGGKPLKEVFSEILDLFRYIASKDIFEAYYKLDIAKRLLLNKSASAQNELMLLDMLKKTCGSQFTHSLEGMFRDVNISKEFTSSFRHSKAAHNLHRDLYVNVLSQAYWPSYPESHIRLPDDMQQDLDCFEKFYLSKQVGKKISWYASLGHCIVKARFPLGNKELSISLFQACVLLQFNNCLGGEGISYQDLKKSTELSDIDLTRTLQSLSCARIRPLVMVPKSKKPSPDTMFYVNEKFTDKLYRVKINQIYLKEERQENSDVQEQVVRDRQFELQASIVRVMKQKEKMKHDDLVQYVINNVKDRGIPLVSDVKTAIEKLLEKEYLEREDNDIYTYVT
For the molecule B4, the binding result with 6×His-MBP-Raf1 was “binds”.
